Assay results from publication PMC6611588, “Quantitative high-throughput screening assays for the discovery and development of SIRPα-CD47 interaction inhibitors” (PLoS ONE, 2019).
Results are given in words; binding and its absence hold for the method and conditions named.

Experiments:
SIRPα-biotin [1] = molecular target: SIRPα-biotin (UniProt P78324); assay: SAXS; small-angle x-ray scattering of SIRPα-Avi in solution, 3 mg/mL and 4 mg/mL samples; methods in S1 File; both purified
SIRPα-biotin [2] = molecular target: SIRPα-biotin (UniProt P78324); assay: SEC; Superdex 75 in 20 mM HEPES pH 7.5, 0.15 M NaCl; purified SIRPα alone; both purified

B1: SIRPα-biotin (domain or fragment, UniProt P78324 31-149, looked up)
chain: EEELQVIQPDKSVLVAAGETATLRCTATSLIPVGPIQWFRGAGPGRELIYNQKEGHFPRVTTVSDLTKRNNMDFSIRIGNITPADAGTYYCVKFRKGSPDDVEFKSGAGTELSVRAKPS
modifications: biotin on the C-terminal Avi-Tag (BirA in vitro, >98% incorporation)
notes: SIRPα (SHPS-1) isoform 1 allele 1, extracellular domain d1, residues 31-149 of UniProt P78324, codon-optimised; Not glycosylated (made in E. coli); also called SIRPα-Avi (before biotinylation); SHPS-1 isoform 1 extracellular domain d1; not shown: His6-thioredoxin-SUMO, N-terminal, cleaved; Avi-Tag, C-terminal, kept
What does the source list for B1?
binding (SIRPα-biotin [1]): no binding (tested: 1.8 mM); binding (SIRPα-biotin [2]): no binding
